Several values for one entry are separate records, joined by “and”; a condition that tells them apart may be missing. Identical values can stand only once. The shares of active, inactive and inconclusive entries below differ from those in the screen. Where the call is inconclusive, the potency comes from a doubtful curve fit. Activity calls are given as the source filed them. The call rests on the fitted dose curve; in most records, active means well fitted curve in the direction sought with a large enough effect; inconclusive means small, poorly fitted or top-dose-only effect, or effect the other way, or another doubt; inactive means no such curve, though single readings can be large or run the other way.
Target: Pyruvate kinase PKLR (Homo sapiens) (UniProt P30613)
Assay: Secondary LDH Assay for Activators of Human Reticulocyte Pyruvate Kinase: for Probe SAR
Details: purified hPK-R, LDH-coupled NADH fluorescence kinetic; series mostly up to 58.4 µM
Excerpt: NIH Chemical Genomics Center [NCGC] Wael M. Rabeh, Lyudmila Nedyalkova and Hee-Wan Park [Structural Genomics Consortium, 100 College St. Toronto, Ontario, Canada] NCGC Assay Overview: Human pyruvate kinase reticulocyte (hPK-R) enzyme was supplied as a highly purified (>95% pure) preparation from Structural Genomics Consortium in Toronto (Ontario, Canada) and a secondary assay was used to evaluate compounds. This assay couples the formation of pyruvate from hPK-R using lactate dehydrogenase (LDH) and NADH. The depletion of NADH is followed in a fluorescent-based kinetic assay that follows the formation of pyruvate to lactate, as catalyzed LDH. Pyruvate kinase substrates, PEP and ADP, were present in the assay at 0.1 mM and 4 mM respectively. In this kinetic assay initial rates were determined by following the fluorescence of NADH depletion.
NCGC Assay Protocol Summary: Three uL of substrate mix (final concentration, 50 mM Tris-Cl pH 8.0, 200 mM KCl, 15 mM MgCl2, 0.1 mM PEP, 4.0 mM ADP, and 0.2 mM NADH) was dispensed into black-solid 1536 well plates. 23 nL of compounds were delivered by a pin tool and 1 uL of enzyme mix (final concentrations, 10 nM hPK-R and 1 uM of LDH) was added. Plates were immediately placed in ViewLux (Perkin Elmer) and NADH fluorescence was determined at 30 second exposure intervals for between 3 and 6 minutes. Data were normalized to the uninhibited and EC100 activation using known activators such as fructose-bis-phosphate.

The chains behind the UniProt entries cited, without tags or fusion partners. Where a name states a change or a piece, a line headed by the entry shows the natural chain unless it says otherwise.
UniProt P30613: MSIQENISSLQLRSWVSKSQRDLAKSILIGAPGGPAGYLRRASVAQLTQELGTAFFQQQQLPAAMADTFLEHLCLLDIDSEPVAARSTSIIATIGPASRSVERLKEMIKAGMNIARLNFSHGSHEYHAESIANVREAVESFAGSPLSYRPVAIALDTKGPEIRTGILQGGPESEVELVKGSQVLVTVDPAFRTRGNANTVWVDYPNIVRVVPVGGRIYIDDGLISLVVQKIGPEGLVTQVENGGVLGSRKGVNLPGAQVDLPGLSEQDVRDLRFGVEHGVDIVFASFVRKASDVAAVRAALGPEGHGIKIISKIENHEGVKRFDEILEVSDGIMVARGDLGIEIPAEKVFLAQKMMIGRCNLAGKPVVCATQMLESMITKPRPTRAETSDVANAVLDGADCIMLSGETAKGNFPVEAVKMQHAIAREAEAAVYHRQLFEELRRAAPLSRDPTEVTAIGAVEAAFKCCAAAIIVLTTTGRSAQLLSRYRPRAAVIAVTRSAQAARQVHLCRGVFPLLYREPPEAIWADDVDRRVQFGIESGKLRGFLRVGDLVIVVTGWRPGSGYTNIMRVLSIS

| SMILES | Potency |
| --- | --- |
| Cc1ccccc1Nc1c(-c2ccccc2)nc2cccc(C)n12 | inconclusive: 3.26 µM [inhibitor, full curve] |
| CSc1cc2c(s1)c1cnn(Cc3cccc(O)c3)c(=O)c1n2C | active: 0.259 µM |
| Cc1ccc(-c2nc3ccccn3c2Nc2ccccc2C)o1 | inconclusive: 5.17 µM [inhibitor, full curve] |
| Cc1ccc(Nc2c(-c3ccc(C)s3)nc3ccccn23)cc1 | inconclusive: 11.6 µM [inhibitor, full curve] |
| COc1ccccc1N1C(=O)c2ccccc2C1=O | inactive |
| Cc1ccc(NS(=O)(=O)c2cc3c(cc2N2CCC2)NC(=O)CC3)cc1C | inactive |
| O=S1(=O)N=C(Oc2ccc(Cl)cc2)c2ccccc21 | inactive |
| Cc1ccc(NS(=O)(=O)c2ccc3ccccc3c2)cc1C | inconclusive: 23.1 µM [rising, partial curve] |
| Cn1c2cc(S(C)=O)sc2c2cnn(Cc3cccc(O)c3)c(=O)c21 (stereo not given) | inconclusive: 3.26 µM [rising, full curve] |
| Cc1ccc(Nc2c(-c3ccc(C)o3)nc3cccc(C)n23)cc1 | inconclusive: 10.3 µM [inhibitor, partial curve] |
| Cc1ccc(Nc2c(-c3ccsc3)nc3cccc(C)n23)cc1 | inconclusive: 3.66 µM [inhibitor, full curve, poor fit] |
| Cc1ccc(-c2nc3cccc(C)n3c2Nc2ccc(F)cc2)o1 | inconclusive: 18.3 µM [inhibitor, partial curve] |
| COc1ccccc1OC1=NS(=O)(=O)c2ccccc21 | inactive |
| Cc1ccc(Nc2c(-c3ccc(C)s3)nc3cccc(C)n23)cc1 | inconclusive: 11.6 µM [inhibitor, partial curve] |
| O=S(=O)(c1ccc2c(c1)OCCO2)N1CCN(S(=O)(=O)c2c(F)cccc2F)CC1 | inconclusive: 41.1 µM [rising, partial curve] and inconclusive: 36.6 µM [rising, partial curve] |
| Cc1ccc(Nc2c(-c3ccsc3)nc3c(C)cccn23)cc1 | inconclusive: 9.19 µM [inhibitor, partial curve] |
| Cc1ccc2nc(-c3ccc(C)o3)c(Nc3ccc4c(c3)OCO4)n2c1 | inactive |
| Cc1ccc2nc(-c3ccc(C)o3)c(Nc3ccccc3)n2c1 | inconclusive: 16.3 µM [inhibitor, partial curve] |

| SMILES | Potency |
| --- | --- |
| Cc1ccc2nc(-c3ccc(C)o3)c(Nc3ccc(Cl)cc3)n2c1 | inconclusive: 16.3 µM [inhibitor, partial curve] |
| COc1ccc(-c2nc3cccc(C)n3c2Nc2ccc(C)cc2)cc1 | inconclusive: 4.61 µM [inhibitor, partial curve] |
| Cc1ccc(Nc2c(-c3ccc(C)o3)nc3ccccn23)cc1 | inconclusive: 9.19 µM [inhibitor, full curve] |
| COc1ccc(-c2nc3ccccn3c2Nc2ccccc2C)cc1 | inconclusive: 4.11 µM [inhibitor, full curve] |
| COc1cccc(N2C(=O)c3ccccc3C2=O)n1 | inactive |
| Cc1ccc2nc(-c3ccc(C)o3)c(Nc3ccc(F)cc3)n2c1 | inconclusive: 18.3 µM [inhibitor, partial curve] |
| O=C1CCc2cc(S(=O)(=O)Nc3cccc(C(F)(F)F)c3)ccc2N1 | inconclusive: 25.9 µM [activator, partial curve, poor fit] |
| Cc1ccc(NS(=O)(=O)c2ccc3c(c2)CCO3)cc1C | inconclusive: 14.6 µM [rising, partial curve] |
| O=C1c2ccccc2C(=O)N1c1nccs1 | inactive |
| Cc1ccc(-c2nc3ccccn3c2Nc2ccc(F)cc2)o1 | inconclusive: 16.3 µM [inhibitor, partial curve] |
| COc1ccccc1NS(=O)(=O)c1ccc2c(c1)CCC(=O)N2 | inactive |
| Cc1ccc(NC(=O)c2ccc3c(c2)CCC(=O)N3)cc1C | inactive |
| Cc1ccc(OC2=NS(=O)(=O)c3ccccc32)cc1 | inactive |
| Cc1ccc(NS(=O)(=O)c2cc3c(cc2-c2ccco2)NC(=O)CO3)cc1C | inconclusive: 23.1 µM [rising, partial curve] |
| COc1ccc(Nc2c(-c3ccc(C)o3)nc3ccccn23)cc1 | inactive |
| O=C1c2ccccc2C(=O)N1c1cccc(=O)[nH]1 | inactive |
| Cc1ccn2c(NCc3ccco3)c(-c3ccccc3)nc2c1 | inconclusive: 29.1 µM [inhibitor, partial curve] |

From PubChem BioAssay AID2562 (National Center for Advancing Translational Sciences (NCATS), 2010)
